Reference: US11229670B2, “Compositions useful for the treatment of immune-related diseases” (SCARCELL THERAPEUTICS, priority 2016, dated 2022)
At least one compound was matched to its structure with a doubt left.

Legend:
[1] = test system: TSLP secretion by human keratinocytes; experiment: TSLP secretion by inflammatory keratinocytes, simultaneous treatment (ELISA); assay type: cell-based; conditions: low inflammatory condition, dexamethasone 10, 100 and 500 μM vs control, FIG. 1B
[2] = test system: CCL26 secretion by human keratinocytes; experiment: CCL26 secretion by inflammatory keratinocytes, simultaneous treatment (ELISA); assay type: cell-based; conditions: low inflammatory condition, dexamethasone 10, 100 and 500 μM vs control, FIG. 1A

**Q.** Which “secretion of TSLP by keratinocytes” value [1] does the source give for `C[C@@H]1C[C@H]2[C@@H]3CCC4=CC(=O)C=C[C@]4(C)[C@@]3(F)[C@@H](O)C[C@]2(C)[C@@]1(O)C(=O)CO` [dexamethasone, Dexamethasone] here?
**A.** inhibits

**Q.** What about the “secretion of CCL26 by keratinocytes” value [2] of the same molecule?
**A.** inhibits
